Results reported in publication PMC13463607.

Sequences of proteins named here, by UniProt entry; tags and fusion partners are left off.
UniProt Q96GD4: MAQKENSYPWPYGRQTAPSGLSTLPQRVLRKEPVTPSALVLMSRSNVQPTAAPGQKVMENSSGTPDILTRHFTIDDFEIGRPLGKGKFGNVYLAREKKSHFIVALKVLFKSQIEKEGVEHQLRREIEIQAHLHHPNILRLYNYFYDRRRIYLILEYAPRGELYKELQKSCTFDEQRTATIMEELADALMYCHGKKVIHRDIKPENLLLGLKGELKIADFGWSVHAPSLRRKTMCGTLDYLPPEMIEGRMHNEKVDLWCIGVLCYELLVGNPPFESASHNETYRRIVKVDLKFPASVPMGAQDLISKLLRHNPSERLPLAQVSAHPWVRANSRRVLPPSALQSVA
UniProt Q9Y2X7: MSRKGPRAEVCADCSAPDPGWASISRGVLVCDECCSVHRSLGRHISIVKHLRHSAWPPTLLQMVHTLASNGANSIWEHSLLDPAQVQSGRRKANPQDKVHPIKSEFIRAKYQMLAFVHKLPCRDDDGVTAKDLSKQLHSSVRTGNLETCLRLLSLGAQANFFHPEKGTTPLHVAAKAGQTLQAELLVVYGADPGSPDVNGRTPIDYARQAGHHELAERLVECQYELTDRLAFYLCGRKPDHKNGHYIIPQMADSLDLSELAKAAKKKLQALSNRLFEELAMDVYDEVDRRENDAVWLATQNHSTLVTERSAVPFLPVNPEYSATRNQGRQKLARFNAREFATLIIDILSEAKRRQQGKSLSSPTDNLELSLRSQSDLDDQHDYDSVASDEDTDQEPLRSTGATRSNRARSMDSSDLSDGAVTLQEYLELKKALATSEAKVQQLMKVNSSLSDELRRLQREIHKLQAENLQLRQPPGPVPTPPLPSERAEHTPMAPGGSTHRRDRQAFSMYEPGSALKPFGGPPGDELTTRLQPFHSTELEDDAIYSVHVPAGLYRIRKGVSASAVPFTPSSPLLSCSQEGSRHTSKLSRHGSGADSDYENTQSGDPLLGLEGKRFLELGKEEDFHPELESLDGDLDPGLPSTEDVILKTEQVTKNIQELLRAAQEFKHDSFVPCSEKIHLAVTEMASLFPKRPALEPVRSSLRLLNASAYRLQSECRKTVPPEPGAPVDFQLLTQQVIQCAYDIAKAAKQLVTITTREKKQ
UniProt Q14247: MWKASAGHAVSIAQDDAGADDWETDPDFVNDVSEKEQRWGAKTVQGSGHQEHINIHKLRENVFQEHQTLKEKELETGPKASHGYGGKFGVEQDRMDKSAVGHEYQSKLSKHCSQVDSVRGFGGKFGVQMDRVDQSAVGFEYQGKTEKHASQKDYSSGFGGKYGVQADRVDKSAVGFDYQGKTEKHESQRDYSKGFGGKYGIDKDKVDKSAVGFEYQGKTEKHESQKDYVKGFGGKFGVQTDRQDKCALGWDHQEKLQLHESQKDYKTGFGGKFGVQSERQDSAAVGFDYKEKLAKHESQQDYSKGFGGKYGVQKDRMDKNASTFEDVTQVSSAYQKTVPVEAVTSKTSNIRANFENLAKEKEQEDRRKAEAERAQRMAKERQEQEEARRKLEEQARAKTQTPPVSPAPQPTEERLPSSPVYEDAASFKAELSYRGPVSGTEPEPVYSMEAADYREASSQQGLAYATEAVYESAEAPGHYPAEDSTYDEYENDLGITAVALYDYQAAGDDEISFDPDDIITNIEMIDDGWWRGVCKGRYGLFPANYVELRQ
UniProt Q13418: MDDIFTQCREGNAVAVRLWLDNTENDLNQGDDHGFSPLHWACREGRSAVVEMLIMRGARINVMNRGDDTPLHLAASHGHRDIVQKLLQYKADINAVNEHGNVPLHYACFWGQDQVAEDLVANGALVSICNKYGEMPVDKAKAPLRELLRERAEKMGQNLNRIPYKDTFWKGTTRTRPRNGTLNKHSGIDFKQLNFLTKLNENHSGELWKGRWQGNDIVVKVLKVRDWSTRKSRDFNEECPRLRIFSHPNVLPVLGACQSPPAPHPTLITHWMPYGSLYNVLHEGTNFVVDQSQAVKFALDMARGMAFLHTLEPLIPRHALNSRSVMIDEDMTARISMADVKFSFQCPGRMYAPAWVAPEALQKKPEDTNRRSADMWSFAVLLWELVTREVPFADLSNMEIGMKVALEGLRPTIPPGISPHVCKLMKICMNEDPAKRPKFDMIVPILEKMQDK
UniProt Q13177: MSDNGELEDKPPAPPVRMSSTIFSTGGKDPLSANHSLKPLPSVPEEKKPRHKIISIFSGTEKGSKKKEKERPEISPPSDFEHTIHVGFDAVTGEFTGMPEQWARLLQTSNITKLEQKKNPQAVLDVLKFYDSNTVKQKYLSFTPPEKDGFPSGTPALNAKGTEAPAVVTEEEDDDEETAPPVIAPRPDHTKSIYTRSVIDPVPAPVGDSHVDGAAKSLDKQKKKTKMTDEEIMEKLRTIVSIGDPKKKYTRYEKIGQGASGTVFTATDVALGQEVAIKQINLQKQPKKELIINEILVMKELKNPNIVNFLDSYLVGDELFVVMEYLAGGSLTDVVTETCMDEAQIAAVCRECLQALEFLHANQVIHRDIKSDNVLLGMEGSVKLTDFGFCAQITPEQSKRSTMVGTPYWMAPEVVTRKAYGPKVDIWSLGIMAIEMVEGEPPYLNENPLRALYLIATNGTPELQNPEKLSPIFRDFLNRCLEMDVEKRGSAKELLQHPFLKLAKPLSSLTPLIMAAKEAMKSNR
UniProt Q14155: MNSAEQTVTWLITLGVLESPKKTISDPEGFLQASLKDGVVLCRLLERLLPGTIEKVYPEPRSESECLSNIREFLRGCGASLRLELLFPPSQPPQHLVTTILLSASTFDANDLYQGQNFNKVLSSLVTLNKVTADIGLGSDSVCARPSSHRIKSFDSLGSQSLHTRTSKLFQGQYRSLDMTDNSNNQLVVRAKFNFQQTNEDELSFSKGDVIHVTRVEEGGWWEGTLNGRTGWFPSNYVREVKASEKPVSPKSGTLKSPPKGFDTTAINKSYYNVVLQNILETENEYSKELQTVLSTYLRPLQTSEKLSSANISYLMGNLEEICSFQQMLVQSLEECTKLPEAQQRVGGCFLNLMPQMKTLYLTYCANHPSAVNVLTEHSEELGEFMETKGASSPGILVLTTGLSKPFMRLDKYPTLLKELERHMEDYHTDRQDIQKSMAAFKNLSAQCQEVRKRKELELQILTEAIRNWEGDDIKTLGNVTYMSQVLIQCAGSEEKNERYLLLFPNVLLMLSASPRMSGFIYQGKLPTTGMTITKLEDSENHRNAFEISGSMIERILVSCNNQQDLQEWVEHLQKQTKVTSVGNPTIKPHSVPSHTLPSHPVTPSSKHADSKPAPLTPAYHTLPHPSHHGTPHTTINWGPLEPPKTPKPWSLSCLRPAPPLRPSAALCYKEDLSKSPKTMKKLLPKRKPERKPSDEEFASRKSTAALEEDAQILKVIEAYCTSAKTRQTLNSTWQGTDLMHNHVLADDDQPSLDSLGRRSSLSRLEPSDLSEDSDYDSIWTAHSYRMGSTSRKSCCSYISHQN
UniProt P62328: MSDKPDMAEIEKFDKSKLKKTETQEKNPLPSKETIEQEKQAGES

T1: TurboID LMW-PTP fusion protein (human) (UniProt P24666)
T1 sequence: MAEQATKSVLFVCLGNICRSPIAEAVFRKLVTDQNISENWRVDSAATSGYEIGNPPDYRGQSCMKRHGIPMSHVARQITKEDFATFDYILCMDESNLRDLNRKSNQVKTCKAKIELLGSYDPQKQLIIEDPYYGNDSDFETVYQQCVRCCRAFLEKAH

B1: Rac/Cdc42 guanine nucleotide exchange factor 6 (protein, UniProt Q15052 1-776)
chain: MNPEEQIVTWLISLGVLESPKKTICDPEEFLKSSLKNGVVLCKLINRLMPGSVEKFCLDPQTEADCINNINDFLKGCATLQVEIFDPDDLYSGVNFSKVLSTLLAVNKATEDQLSERPCGRSSSLSAANTSQTNPQGAVSSTVSGLQRQSKTVEMTENGSHQLIVKARFNFKQTNEDELSVCKGDIIYVTRVEEGGWWEGTLNGRTGWFPSNYVREIKSSERPLSPKAVKGFETAPLTKNYYTVVLQNILDTEKEYAKELQSLLVTYLRPLQSNNNLSTVEVTSLLGNFEEVCTFQQTLCQALEECSKFPENQHKVGGCLLSLMPHFKSMYLAYCANHPSAVNVLTQHSDELEQFMENQGASSPGILILTTNLSKPFMRLEKYVTLLQELERHMEDTHPDHQDILKAIVAFKTLMGQCQDLRKRKQLELQILSEPIQAWEGEDIKNLGNVIFMSQVMVQYGACEEKEERYLMLFSNVLIMLSASPRMSGFIYQGKIPIAGTVVTRLDEIEGNDCTFEITGNTVERIVVHCNNNQDFQEWLEQLNRLIRGPASCSSLSKTSSSSCSAHSSFSSTGQPRGPLEPPQIIKPWSLSCLRPAPPLRPSAALGYKERMSYILKESSKSPKTMKKFLHKRKTERKPSEEEYVIRKSTAALEEDAQILKVIEAYCTSANFQQGHGSSTRKDSIPQVLLPEEEKLIIEETRSNGQTIMEEKSLVDTVYALKDEVRELKQENKRMKQCLEEELKSRRDLEKLVRRLLKQTDECIRGESSSKTSILP

Key:
[1] = molecular target: TurboID aurora B fusion protein (human) (UniProt Q96GD4); test: proximity labelling; TurboID fusions of aurora B or LMW-PTP lentivirally expressed in GBM43 cells; 10 μM biotin, 37°C, 10 minutes; RIPA lysates; streptavidin magnetic beads, 1 hour at room temperature; mass spectrometry; greater than 2-fold more abundance versus control TurboID cytochrome P450 (aa 1-29) fusion
[2] = molecular target: T1, TurboID LMW-PTP fusion protein (human); test: as above

| binding [1] | binding [2] | Molecule |
| --- | --- | --- |
| binds | binds | G protein–coupled receptor kinase interactor-1 (from UniProt Q9Y2X7 1-761) |
| binds | binds | cortactin (from UniProt Q14247 1-550) |
| binds | binds | integrin-linked kinase (from UniProt Q13418 1-452) |
| binds | binds | p21 protein-activated kinase 2 (from UniProt Q13177 1-524) |
| binds | binds | rho guanine nucleotide exchange factor 7 (from UniProt Q14155 1-803) |
| binds | binds | thymosin-β4 (from UniProt P62328 1-44) |
| binds | binds | B1 |

No constants are given. Whether binding was seen depends on the method and setting. Binding seen in cells or lysates may run through a third protein. A yes stands for co-enrichment or nearness to the bait. Other partners may have been found. For some assays here: Where a sequence is shown, tags or fusion partners need not be part of it.
